# Laboratory results taken from PubChem BioAssay AID493014 (National Center for Advancing Translational Sciences (NCATS), 2011).
# The list shows a part of the results. These are further read-outs of the screen, such as a control signal, another cell line or another target. No call is given for them. Compounds called inactive in the main read-out are mostly missing here. The note in brackets gives the kind of curve behind each potency; many fits are weak.
# Assay: qHTS Assay to Find Inhibitors of Chronic Active B-Cell Receptor Signaling
# Conditions: ABC-DLBCL IkBa-CBG/CBR reporter, luminescence ratio (green luciferase fused to IkBa over red control in TMD8 lymphoma cells), 4 h
# Summary of the method: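 TMD8 human ABC-DLBCL cells with doxycycline-inducible IκBα–green luciferase fusion and unfused red luciferase, in 0.5% FBS medium; compounds up to 46 uM, 4 h at 37C. Green/red luminescence ratio, filter-overlap corrected, fitted to concentration-response curves.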
# [1] = measured here: CBR red luminescence, cell number
# [2] = measured here: IkBa-CBG green luminescence
SMILES,AC50 [1],AC50 [2]
CCN(CC(=O)NCc1ccc(Cl)cc1)C(=O)C(C)Sc1ccccc1 (stereo unspecified),"7.08 µM [falling, partial curve]",–
CNc1ccc(Br)cc(C(=O)/C=C/c2ccc3c(c2)OCO3)c1=O,"8.91 µM [falling, partial curve]",–
O=c1c2ccccc2nc2ccc(NCc3ccco3)nn12,"3.55 µM [falling, full curve]",–
c1ccc(-c2nc(N3CCCCC3)nc3ccccc23)cc1,"6.51 µM [rising, single point]",–
c1ccc(CSc2nnc(-c3c[nH]c4ccccc34)o2)cc1,"22.4 µM [rising, single point]","25.1 µM [falling, partial curve, poor fit]"
S=c1[nH]nc(CNc2ccc(Cl)cc2)n1Cc1ccccc1,"12.6 µM [falling, partial curve, poor fit]",–
CCc1ccc2[nH]c(=O)c(CN(CCCN3CCOCC3)C(=O)Nc3ccc(Cl)cc3)cc2c1,"35.5 µM [rising, single point]",–
O=C(c1ccco1)[C@@H]1[C@@H]2C(=O)N(c3ccc(F)cc3)C(=O)[C@@H]2[C@H]2C=Cc3ccccc3N21,"7.31 µM [falling, partial curve]",–
Cc1nnc(-c2cccc(Br)c2)c2cn(-c3ccccc3)nc12,"4.47 µM [falling, partial curve, poor fit]",–
O=C(NC(Cc1ccccc1)c1nc2ccccc2[nH]1)c1ccc(Cl)c([N+](=O)[O-])c1 (stereo unspecified),"29.1 µM [falling, single point]",–
O=C(C1CCCN(c2ncnc3c2nc2n3CCCCC2)C1)N1CCN(c2cccc(Cl)c2)CC1 (stereo unspecified),"35.5 µM [falling, single point]",–
COc1ccc(-c2cc(C(=O)N3CCCCCC3)no2)cc1OC,"0.708 µM [rising, full curve]",–
COc1ccc(C[C@H]2CN3C(=NC[C@@H]3Cc3ccc(O)cc3)N2CCNC(=O)c2ccc(C)c(Br)c2)cc1,"25.1 µM [falling, single point]",–
COCc1cc(=O)n2c(-c3ccccc3OC)n[nH]c2n1,"10 µM [falling, partial curve, poor fit]",–
Cc1ccc(NC(=O)c2ccc(=O)n(CC(=O)Nc3cccc(C)c3)n2)cc1,"20 µM [falling, single point]",–
C/C(=N\NC(=O)c1cc(-c2ccncc2)nc2ccccc12)c1ccc(OC(F)F)cc1,–,"22.4 µM [falling, single point]"
COC(=O)/C(=C\c1c[nH]c2ccccc12)NC(C)=O,"3.98 µM [rising, partial curve, poor fit]",–
Cn1cc(CNC(=O)c2sc3cccc(Cl)c3c2Cl)cn1,"6.51 µM [rising, single point]",–
COc1cccc(NC(=O)c2ccc(NS(=O)(=O)c3cccs3)cc2)c1,"9.2 µM [falling, partial curve]",–
COc1ccc(C(=O)Nc2cc(OC)ccc2OC)cc1,"3.55 µM [falling, single point]",–
CC(Sc1ccc(Cl)cc1)C(=O)NNC(=O)c1ccccc1O (stereo unspecified),"14.1 µM [falling, partial curve, poor fit]",–
O=C(N/N=C/C=C/c1ccccc1)c1cccc(Br)c1,"2 µM [falling, partial curve, poor fit]",–

SMILES,AC50 [1],AC50 [2]
Cc1ccc(NC(=O)Cc2ccsc2)cc1S(=O)(=O)N1CCOCC1,"13 µM [rising, partial curve, poor fit]",–
CCc1ccc(C(=O)NNc2cc(Cl)ccc2Cl)cc1,"35.5 µM [falling, partial curve, poor fit]",–
O=C(c1ccc(F)cc1)c1cn(Cc2ccc(F)cc2)c2cc3c(cc2c1=O)OCCO3,"1.64 µM [rising, full curve, poor fit]",–
O=C1CN(C(=O)CN2CCCC2)C(c2ccccc2)c2cc(Br)ccc2N1 (stereo unspecified),"6.51 µM [falling, partial curve, poor fit]",–
CCCOc1cccc(NC(=O)c2cc(C)oc2C)c1,"22.4 µM [falling, single point]",–
C=CCCC(=O)Nc1nc(C)c(-c2csc(Nc3cccc(OC)c3)n2)s1,"22.4 µM [falling, partial curve, poor fit]",–
COC(=O)c1scc(C)c1N1C(=O)c2ccccc2C1=O,"35.5 µM [rising, partial curve, poor fit]",–
CCOC(=O)Cc1csc(NC(=O)c2ccc3ncsc3c2)n1,"8.91 µM [falling, partial curve]",–
COc1ccccc1C(=O)Nc1nc(-c2ccc(S(=O)(=O)N3CCOCC3)cc2)cs1,"20.6 µM [falling, partial curve]",–
COc1ccc(N2CCN(Cc3nc4c(c(=O)n(C)c(=O)n4C)n3CCc3ccccc3)CC2)cc1,"29.1 µM [rising, single point]",–
CCC(=O)NCc1cc(-c2nn(C)c(=O)c3ccccc23)ccc1OC,"35.5 µM [rising, single point]","6.31 µM [falling, partial curve]"
Cn1nnnc1SCc1ccc(C(=O)Nc2nccs2)cc1,"0.651 µM [falling, partial curve, poor fit]",–
COc1cc([N+](=O)[O-])ccc1NC(=O)CN1CCc2cc(OC)c(OC)cc2C1,"8.91 µM [falling, partial curve]",–
O=C(NCCOc1ccc(F)cc1)C1CCN(S(=O)(=O)c2ccccc2)CC1,"8.91 µM [rising, partial curve, poor fit]",–
COc1nc(-c2ccccc2)cc(-c2ccccc2)n1,"20.6 µM [falling, partial curve]",–
Cc1ccccc1C(=O)NNC(=O)c1cccc([N+](=O)[O-])c1,"3.98 µM [falling, partial curve]",–
CC1CCN(CC(=O)c2c[nH]c3ccccc23)CC1,"10 µM [falling, partial curve]",–
CCOc1ccc(/C(C)=N/NC(=O)C(OC)c2ccccc2)cc1 (stereo unspecified),"35.5 µM [rising, single point]",–
CCOc1ccc(C(C(=O)NC2CCCC2)N(Cc2ccccc2)C(=O)c2nsc(Cl)c2Cl)cc1 (stereo unspecified),"2.06 µM [falling, partial curve, poor fit]",–
NC(=O)CNC1CC(=O)N(CCc2ccccc2)C1=O (stereo unspecified),"25.9 µM [rising, single point]",–
O=C(CCCN1C(=O)/C(=C/c2ccccc2Cl)SC1=S)N1CCOCC1,"14.1 µM [falling, partial curve]",–
CCOc1ccc(C2C(C(=O)c3ccco3)=C(O)C(=O)N2Cc2cccnc2)cc1 (stereo unspecified),"5.8 µM [rising, single point]",–

SMILES,AC50 [1],AC50 [2]
COC(=O)N1C(=O)[C@@](Cc2ccccc2)(c2ccccc2)N1C(=O)OC,"2.51 µM [falling, partial curve, poor fit]",–
CC(C)C(NC(=S)NCc1ccccc1)C(=O)O (stereo unspecified),"5.17 µM [falling, full curve, poor fit]",–
COc1ccc(N(CC(=O)N/N=C/c2ccc(OC)c(OC)c2)S(=O)(=O)c2ccccc2)cc1,"35.5 µM [falling, single point]",–
CCN1C(=O)C(=O)N(CC(=O)N2CCC(C)Sc3ccccc32)C1=O (stereo unspecified),"25.9 µM [rising, single point]",–
Clc1cccc(-c2nc(NCC3CCCO3)c3ccccc3n2)c1 (stereo unspecified),"35.5 µM [falling, single point]",–
C=CCc1cc(Cl)ccc1OCCOCCN(C)C,"5.01 µM [falling, full curve]",–
Cc1cc(=O)oc2c(C)c(OCC(=O)N3CCN(c4ccc(F)cc4)CC3)ccc12,"5.01 µM [rising, single point]",–
Cc1cc(C(=O)Nc2nnc(C(F)(F)F)s2)cs1,"0.708 µM [falling, full curve]",–
O=C(NCc1ccccn1)Nc1ccccc1,"12.6 µM [falling, partial curve, poor fit]",–
Cc1cc(OCCCCNC(C)C)cc(C(C)C)c1,"29.1 µM [falling, single point]",–
CCc1ccc(S(=O)(=O)NCCc2csc3nc(-c4ccccc4)nn23)s1,"15.8 µM [falling, single point]",–
O=C(Nc1nc2cc3c(cc2s1)OCO3)C1CCCCC1,"2 µM [falling, full curve]",–
CC(C)(C)NCCOc1ccc(Br)cc1,"13 µM [rising, single point]",–
O=C(CC1C(=O)NCCN1C(=O)Nc1ccc(F)cc1F)Nc1ccc(F)cc1 (stereo unspecified),"0.708 µM [falling, partial curve, poor fit]",–
COc1cc(/C=N/NC(=O)c2cc(C3CC3)[nH]n2)ccc1O,"22.4 µM [falling, single point]",–
COC(=O)COc1ccc(-c2ccccc2)cc1C=O,"12.6 µM [rising, partial curve]",–
COc1ccc(C)cc1NC(=O)NCc1ccco1,"5.01 µM [rising, partial curve, poor fit]",–
COc1ccc(CCN(C)C(=O)c2ccc3c(=O)n4c(nc3c2)CCCCC4)cc1OC,"1.46 µM [rising, full curve]",–
Cc1nn(Cc2cccc(C(=O)Nc3ccn(Cc4ccccc4F)n3)c2)c(C)c1[N+](=O)[O-],"29.1 µM [rising, single point]",–
CCOc1ccc(Nc2nc3cc(S(=O)(=O)CC)ccc3o2)cc1,"2.82 µM [rising, full curve, poor fit]",–

# 16 consecutive entries already listed:
SMILES,AC50 [1],AC50 [2]
COc1ccc(N2CCN(Cc3nc4c(c(=O)n(C)c(=O)n4C)n3CCc3ccccc3)CC2)cc1,"29.1 µM [rising, single point]",–
CCC(=O)NCc1cc(-c2nn(C)c(=O)c3ccccc23)ccc1OC,"35.5 µM [rising, single point]","6.31 µM [falling, partial curve]"
Cn1nnnc1SCc1ccc(C(=O)Nc2nccs2)cc1,"0.651 µM [falling, partial curve, poor fit]",–
COc1cc([N+](=O)[O-])ccc1NC(=O)CN1CCc2cc(OC)c(OC)cc2C1,"8.91 µM [falling, partial curve]",–
O=C(NCCOc1ccc(F)cc1)C1CCN(S(=O)(=O)c2ccccc2)CC1,"8.91 µM [rising, partial curve, poor fit]",–
COc1nc(-c2ccccc2)cc(-c2ccccc2)n1,"20.6 µM [falling, partial curve]",–
Cc1ccccc1C(=O)NNC(=O)c1cccc([N+](=O)[O-])c1,"3.98 µM [falling, partial curve]",–
CC1CCN(CC(=O)c2c[nH]c3ccccc23)CC1,"10 µM [falling, partial curve]",–
CCOc1ccc(/C(C)=N/NC(=O)C(OC)c2ccccc2)cc1 (stereo unspecified),"35.5 µM [rising, single point]",–
CCOc1ccc(C(C(=O)NC2CCCC2)N(Cc2ccccc2)C(=O)c2nsc(Cl)c2Cl)cc1 (stereo unspecified),"2.06 µM [falling, partial curve, poor fit]",–
NC(=O)CNC1CC(=O)N(CCc2ccccc2)C1=O (stereo unspecified),"25.9 µM [rising, single point]",–
O=C(CCCN1C(=O)/C(=C/c2ccccc2Cl)SC1=S)N1CCOCC1,"14.1 µM [falling, partial curve]",–
CCOc1ccc(C2C(C(=O)c3ccco3)=C(O)C(=O)N2Cc2cccnc2)cc1 (stereo unspecified),"5.8 µM [rising, single point]",–
COC(=O)N1C(=O)[C@@](Cc2ccccc2)(c2ccccc2)N1C(=O)OC,"2.51 µM [falling, partial curve, poor fit]",–
CC(C)C(NC(=S)NCc1ccccc1)C(=O)O (stereo unspecified),"5.17 µM [falling, full curve, poor fit]",–
COc1ccc(N(CC(=O)N/N=C/c2ccc(OC)c(OC)c2)S(=O)(=O)c2ccccc2)cc1,"35.5 µM [falling, single point]",–
